Patent US12281205B2, “Modified antibacterial compositions and methods” (priority 2016, dated 2025)

Tested on: sheep red blood cells (RBCs)
Test: Hemolysis assay
Details: therapeutic index, MBC50 against E. coli

GIGKFLHSAKKFGKAFVGEIMNS-NH2 [Magainin II]
HC50/MBC50 (E. coli): 3

Ovispirin: antimicrobial peptide NH2- KNLRRIIRKIIHIIKKYG-COOH (SNAPP conjugate)
HC50/MBC50 (E. coli): 15

Where no end group is shown, it is not given here.
